Experimental data published in patent publication US10414763B2 (CANCER RESEARCH TECHNOLOGY LIMITED, priority 2014, dated 2019).

Chains of the proteins cited; added tags and fusions are not shown.
UniProt P41743, whole entry: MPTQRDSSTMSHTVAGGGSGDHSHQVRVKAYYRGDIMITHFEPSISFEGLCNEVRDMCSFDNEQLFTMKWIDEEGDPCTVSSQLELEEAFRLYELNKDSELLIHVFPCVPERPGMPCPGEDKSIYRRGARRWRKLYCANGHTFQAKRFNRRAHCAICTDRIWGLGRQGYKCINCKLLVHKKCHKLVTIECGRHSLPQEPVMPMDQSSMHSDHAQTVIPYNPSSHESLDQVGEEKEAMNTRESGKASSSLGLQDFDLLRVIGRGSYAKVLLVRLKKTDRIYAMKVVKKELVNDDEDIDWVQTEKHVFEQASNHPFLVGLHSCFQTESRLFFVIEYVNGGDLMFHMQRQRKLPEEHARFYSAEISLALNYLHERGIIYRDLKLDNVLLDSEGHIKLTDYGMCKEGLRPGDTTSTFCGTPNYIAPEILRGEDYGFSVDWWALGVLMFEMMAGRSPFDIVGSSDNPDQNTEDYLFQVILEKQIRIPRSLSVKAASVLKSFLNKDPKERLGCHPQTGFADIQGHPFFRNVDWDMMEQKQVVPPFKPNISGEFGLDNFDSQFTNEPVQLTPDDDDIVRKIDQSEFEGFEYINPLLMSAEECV

Molecular target: full-length human PKCι (Homo sapiens, UniProt P41743)
Assay: PKCι IC50 IMAP fluorescence polarisation assay, full-length enzyme, 150 μM ATP
Details: read-out: IC50 in IMAP assay against full length PKCi at 150 μM ATP
Source text: Assays are based on the ability of PKCι to phosphorylate a commercially available peptide substrate in vitro. The peptide substrate is FAM-PKCε pseudopeptide derived peptide, and comprises the amino acid sequence 5FAM-ERMRPRKRQGSVRRRV-NH2. Recombinant, full-length human PKCι expressed in Sf21 insect cells is also commercially available. Recombinant, kinase-domain human PKCι is expressed and purified in-house.
The procedure below explains how dose response curves for inhibitors of PKCι are obtained. The screen described is for a 384 well format but the assay can be adapted to 1536 or other formats as required.
Compounds to be tested are dissolved in 100% DMSO. […]
On the day of the screen PKCι/substrate working solution, and ATP working solution, are prepared in buffer containing 20 mM tris-HCl pH7.5, 10 mM MgCl2, 0.01% Triton X100, 250 μM EGTA and 1 mM DTT. […] IMAP development reagent consists of 0.25% (v/v) IMAP progressive binding reagent, 17% (v/v) IMAP progressive binding buffer A and 3% (v/v) IMAP progressive binding buffer B. The plates are then incubated for 2 hours at room temperature before being read using an appropriate plate reader, for example a Molecular Devices HT Analyst or a BMG Pherastar. Plates are read using a fluorescence polarisation protocol with excitation at 485 nm and emission at 530 nm, and dichroic mirror at 505 nm. […]

## CN(c1nc(-c2ccnc(Nc3nc(F)ccc3F)c2)nc2cncc(C3CCC3)c12)C1CCNCC1(C)C (centres unmarked)
  pIC50: > 7.00

## CN(c1nc(-c2ccnc(Nc3nc(F)ccc3F)c2)nc2cncc(C3CC3)c12)C1CCNCC1(C)C (centres unmarked)
  pIC50: > 7.00

pIC50: −log10 of the molar value. Structures were worked out from names or drawings and are uncertain.
